Source: paper PMC7812317
These are yes or no findings as the source states them, for the method shown. In cells and extracts the contact can be indirect. Some entries that bind do so weakly or less than the wild type.

By UniProt entry, the sequences of proteins in these tests, tags left out.
UniProt P53350: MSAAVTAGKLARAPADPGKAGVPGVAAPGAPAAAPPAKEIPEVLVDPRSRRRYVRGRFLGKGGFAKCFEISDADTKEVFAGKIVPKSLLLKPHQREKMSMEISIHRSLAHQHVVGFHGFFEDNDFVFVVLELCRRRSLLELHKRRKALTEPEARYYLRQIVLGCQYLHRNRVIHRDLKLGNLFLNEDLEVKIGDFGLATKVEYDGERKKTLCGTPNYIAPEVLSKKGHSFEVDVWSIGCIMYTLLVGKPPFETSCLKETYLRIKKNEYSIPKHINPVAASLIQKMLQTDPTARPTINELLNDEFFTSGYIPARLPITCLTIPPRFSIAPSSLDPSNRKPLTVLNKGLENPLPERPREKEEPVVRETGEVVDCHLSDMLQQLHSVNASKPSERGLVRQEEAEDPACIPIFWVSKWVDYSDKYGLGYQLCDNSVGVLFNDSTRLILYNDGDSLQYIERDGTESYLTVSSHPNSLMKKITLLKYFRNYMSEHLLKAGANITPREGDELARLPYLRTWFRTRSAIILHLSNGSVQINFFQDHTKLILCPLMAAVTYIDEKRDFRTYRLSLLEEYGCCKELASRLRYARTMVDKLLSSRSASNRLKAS

Legend:
[1] = biological target: Polo-like kinase 1 (human (endogenous in hTERT-RPE1)) (UniProt P53350); test: co-IP; anti-PLK1 antibody (IgG overnight at 4°C, Protein A/G Ultralink beads) on 2 mg cytoplasmic extract of RPE cells synchronised in G2; blots of bound proteins
[2] = biological target: Cyclin A2 (human (endogenous in hTERT-RPE1)) (UniProt P20248); test: co-IP; anti-CycA2 antibody (1-1.5 ug IgG overnight at 4°C, Protein A/G Ultralink beads) on 2 mg cytoplasmic extract of RPE cells synchronised in G2; 150 mM NaCl, 0.1% Triton X-100; blots of bound proteins
[3] = biological target: Cyclin A2 (human (endogenous in hTERT-RPE1)) (UniProt P20248); test: co-IP; anti-CycA2 antibody (1-1.5 ug IgG overnight at 4°C, Protein A/G Ultralink beads) on 2 mg nuclear extract of RPE cells synchronised in G2; 150 mM NaCl, 0.1% NP-40; blots of bound proteins

Substance	binding [1]	binding [2]	binding [3]
Bora (from UniProt Q6PGQ7 1-559)	binds	binds	–
Polo-like kinase 1 (from UniProt P53350 1-603) (enzyme)	–	binds	no binding (condition: in the nuclear extract)
